Results are given in words; binding and its absence hold for the method and conditions named. Binding seen in cells or lysates may run through a third protein. Some binding calls cover weakened binding; strength is not graded here.

The chains behind the UniProt entries cited, without tags or fusion partners. Where a name states a change or a piece, a line headed by the entry shows the natural chain unless it says otherwise.
UniProt Q02563, whole entry: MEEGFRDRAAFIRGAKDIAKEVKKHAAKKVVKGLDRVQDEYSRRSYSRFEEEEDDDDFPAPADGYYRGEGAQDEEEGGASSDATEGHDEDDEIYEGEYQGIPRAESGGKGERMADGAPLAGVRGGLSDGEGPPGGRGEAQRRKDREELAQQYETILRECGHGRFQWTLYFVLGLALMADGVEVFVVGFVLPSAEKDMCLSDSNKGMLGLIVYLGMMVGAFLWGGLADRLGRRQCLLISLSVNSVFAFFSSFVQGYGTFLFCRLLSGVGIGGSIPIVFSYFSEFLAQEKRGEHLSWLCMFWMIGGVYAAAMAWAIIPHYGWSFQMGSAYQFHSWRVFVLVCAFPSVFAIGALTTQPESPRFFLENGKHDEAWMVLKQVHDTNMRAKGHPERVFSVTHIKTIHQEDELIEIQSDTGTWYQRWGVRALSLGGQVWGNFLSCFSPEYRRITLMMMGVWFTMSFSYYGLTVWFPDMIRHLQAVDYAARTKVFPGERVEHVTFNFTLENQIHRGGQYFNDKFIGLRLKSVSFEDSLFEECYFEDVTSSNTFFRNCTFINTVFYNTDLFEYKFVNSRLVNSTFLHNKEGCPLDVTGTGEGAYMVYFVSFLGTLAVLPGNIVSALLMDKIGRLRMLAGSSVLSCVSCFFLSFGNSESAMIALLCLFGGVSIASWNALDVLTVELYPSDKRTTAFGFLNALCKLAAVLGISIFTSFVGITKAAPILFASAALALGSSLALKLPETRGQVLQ
UniProt P21707, whole entry: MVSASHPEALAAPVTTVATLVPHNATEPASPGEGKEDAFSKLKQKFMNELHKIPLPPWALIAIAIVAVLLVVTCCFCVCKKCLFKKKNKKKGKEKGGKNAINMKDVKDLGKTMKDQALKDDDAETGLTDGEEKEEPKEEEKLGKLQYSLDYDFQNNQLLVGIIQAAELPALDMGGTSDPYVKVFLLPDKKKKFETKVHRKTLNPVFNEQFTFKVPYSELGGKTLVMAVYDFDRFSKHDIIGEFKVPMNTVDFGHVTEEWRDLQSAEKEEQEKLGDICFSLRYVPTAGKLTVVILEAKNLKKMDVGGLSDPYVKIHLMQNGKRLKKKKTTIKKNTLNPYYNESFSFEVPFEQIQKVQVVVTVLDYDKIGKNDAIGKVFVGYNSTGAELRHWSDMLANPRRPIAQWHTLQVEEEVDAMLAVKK

One assay deals with SV2A^Y46A-mCer (UniProt Q02563). Nature of the assay: co-IP.
Assay [1] has as its target SV2A^WT-mCer (synaptic vesicle protein 2A, mCerulean-tagged, wild type) (UniProt Q02563). Nature of the assay: co-IP.

For the substance “Syt1-HA (synaptotagmin-1, HA-tagged) (from UniProt P21707 1-421)”, the binding entry (with SV2A^Y46A-mCer; in assay [1]) was “binds” throughout.

The values above are taken from article doi:10.1101/2022.12.12.520075.
